Test results as given in PubChem BioAssay AID2685 (National Center for Advancing Translational Sciences (NCATS), 2010).
Hit rate of the full screen: of about 320,000 compounds, about 2,100 (0.66%) were called active. The shares of active, inactive and inconclusive entries below differ from those in the screen. The call rests on the fitted dose curve; in most records, active means well fitted inhibition curve with a large enough effect in the signal ratio, with a control signal flat (not every such curve was filed as active); inconclusive means small, poorly fitted or top-dose-only effect, or effect the other way, or a change in a side signal; inactive means flat fitted curve, though single readings scatter; the % refers to the signal ratio. Potencies of inconclusive entries are doubtful fits and often do not repeat.

Experiment: qHTS Assay for Lipid Storage Modulators in Drosophila S3 Cells
Conditions: BODIPY lipid droplet fluorescence, 18-24 h, cells fed with added oleic acid; lipid storage change, negative = inhibition: at 46.1 µM (top of the series) unless noted
How it was run: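 Drosophila S3 cells got compounds at several concentrations plus oleic acid (400 uM solution). Laser-scanning cytometry with 488 nm excitation read lipid droplets at 500-530 nm and cells at 575-640 nm. Percent activity was relative to 20 uM Triacsin C.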
On the % scale 0 is the no-effect control and ±100 the full control effect; potency means the concentration at half of the fitted maximal effect.

Lipid storage change, negative = inhibition, inconclusive:
O=C(c1cc(-c2ccccc2)on1)N1CCc2ccccc2C1 -12.5%
COc1ccc(OCC(=O)Nc2ccc(Cl)cc2)cc1 13.4%
CC(=O)Nc1ccc(S(=O)(=O)NCC(=O)OCC(=O)c2cc(C)n(-c3ccc4c(c3)OCO4)c2C)cc1 28.6%
Nc1ccc2c(c1)COC2=O -6.94%
Cc1ccc(-c2nc(NC(=O)CSc3ncn[nH]3)ns2)cc1 23.8%
Cc1ccc(NC(=O)COc2ncnc3c(Cl)cc(Cl)cc23)cc1[N+](=O)[O-] -22.8%
COc1ccc(C(=O)NCCCOC(=O)c2ccc(OC)cc2)cc1 11.9%
S=C1CCC(c2ccc(Br)cc2)=NN1c1ccccc1 -24.5%
Cn1c(N)c(C(=O)CSc2nnc(-c3ccccc3F)n2C2CC2)c(=O)n(C)c1=O 20.1%
CC(C)C(NS(=O)(=O)c1ccccc1)C(=O)NC1CCCC1 (centres undefined) 11.3%
CCC(C(=O)N1CCN(C(=O)c2ccco2)CC1)n1sc2ccccc2c1=O (centres undefined) -1.86%
Cc1cc(C)n(-c2ccc(C(=O)OCc3nnc(-c4ccccc4)o3)cc2)n1 -11.2%
Cc1ccc(C(C2=C(O)CC(C)(C)CC2=O)C2C(=O)CC(C)(C)CC2=O)o1 (centres undefined) 5.89%
O=C(c1ccc(Cl)cc1)c1cc([N+](=O)[O-])ccc1N1CCOCC1 -27.1%
COc1ccc(NC(=O)c2c(-c3c(Cl)cccc3Cl)noc2C)cn1 15.9%
O=C(O)CC(NC(=O)CC(c1ccccc1)c1ccccc1)c1cccc([N+](=O)[O-])c1 (centres undefined) 28.5%
NS(=O)(=O)c1ccc(CCNC(=O)C2CCN(S(=O)(=O)c3c(Cl)cccc3Cl)CC2)cc1 25.7%
Cc1noc(C)c1S(=O)(=O)Nc1ccc(C(=O)NC2CCCCC2)cc1 1.01%
CCN(CC)CCCNC(=S)N1CCN(c2nc3ccccc3n2CC)CC1 58.1%
Cc1ccc(S(=O)(=O)Nc2ccccc2C(=O)Nc2ccc(S(=O)(=O)Nc3nccc(C)n3)cc2)cc1 18.8%
O=C(NCc1ccccc1F)c1ccc2c(c1)OCCO2 122%
COc1cc2c3c(c1)C(C)CC(C)(C)N3C(=O)C2=O (centres undefined) 4.51%
CCCc1cc(=O)[nH]c(SCc2cc(Cl)ccc2OC(F)F)n1 -50.2%
CN(C(=O)C(=O)c1cn(CC(=O)N2CCCC2)c2ccccc12)C1CCCCC1 -1.08%
Cc1ccc(S(=O)(=O)Nc2cccc(-c3ccc(N4CCCCCC4)nn3)c2)cc1C 17.7%
Cc1ccccc1NC(=O)c1cccc(S(=O)(=O)N2CCCCC2)c1 -51.5%
c1ccc(CN2CCN(CCN3CCn4c3nc3ccccc34)CC2)cc1 -45.5%
Cc1ccc(NC2CCCN(C(=O)c3cn4cccc(C)c4n3)C2)cc1C (centres undefined) 105%
O=C(OCC(=O)N1CCN(S(=O)(=O)c2ccc(Cl)cc2)CC1)c1ccc([N+](=O)[O-])o1 -0.6%
Cc1ccc(S(=O)(=O)c2c(C)cc(C)nc2Oc2cccc(C)c2C)cc1 27.8%
CCc1cccc(NC(=O)COC(=O)/C=C/c2cccs2)c1
CCOc1ccc(OCc2cccc(C(=O)N3CCOCC3)c2)cc1 54.6%
COc1ccc(N/C=C2\C(=O)CCc3c2oc2cc(Cl)c(O)c(Cl)c32)cc1 -26.4%
CC(=O)Nc1ccc(OCCOc2ccc(/C=C3\C(=N)N4N=C(C)SC4=NC3=O)cc2)cc1 224%
COc1ccc2oc3ccccc3c(=O)c2c1 3.72%
Nc1nc(NCc2ccco2)nc(Nc2ccc(F)cc2)c1[N+](=O)[O-] 13.7%
Cc1cccc(/N=C/C2=C(O)CC(C)(C)CC2=O)n1 -21.2%
CCCn1c(SCC(=O)Nc2ccc3c(c2)OCCO3)n[nH]c1=O
CC(C)Nc1ccccc1 -56.9%
CCN(Cc1ccccc1)C(=O)CSc1nncn1C 34.9%
O=C(N/C(=C/c1ccco1)C(=O)N1CCCCCC1)c1cccs1 9.46%
CC(C)(C)n1ncc2c(=O)n(CC(=O)Nc3ccc(Cl)cc3)cnc21 40.7%
COc1cc(O)c2c(c1)COC2=O -3.25%
O=C(O)c1cccc(NC(=O)c2cccc(S(=O)(=O)Nc3cccc([N+](=O)[O-])c3)c2)c1 117%
Cc1ccc(C(=O)CC2(O)C(=O)N(Cc3ccccc3)c3ccccc32)o1 (centres undefined) 23.9%
Fc1cccc(Cl)c1/C=N/Nc1c(Cl)cncc1Cl 6.45%
O=C(Nc1cc(S(=O)(=O)N2CCCCCC2)ccc1OCC(F)(F)F)c1cnccn1 26.7%
O=C(c1cccs1)N1CCCC(c2nc(-c3ccc(F)cc3)no2)C1 (centres undefined) -29.9%
Cc1ccc(/C=C/C(=O)N2CCCC(C(N)=O)C2)o1 (centres undefined) -17.5%
C=CCSCC1Nc2cc(Cl)c(S(N)(=O)=O)cc2S(=O)(=O)N1 (centres undefined) 15.3%
O=C(Nc1ccccc1)c1ccccc1CSc1ccccc1 17.7%

Lipid storage change, negative = inhibition, inactive:
COc1ccc(-c2nnn(CC(=O)N3CCN(c4ccc(F)cc4)CC3)n2)cc1 -12.3%
Cc1cccc(N2CCN(C(=O)COc3ccc4c(c3)CCC4)CC2)c1C 0.152%
O=C(CCN1CCc2ccccc2C1)Nc1ccc(F)c(F)c1 14.2%
CCOc1ccc(NC(=O)CN2C(=O)CSC(C)C2=O)cc1 (centres undefined) 18.6%
COc1ccccc1N1CCN(CC(O)COc2ccc3c(c2)CCC3)CC1 (centres undefined) -12.6%
N#CCCN(C(=O)COc1ccc(C#N)cc1)c1ccc(F)cc1 -8.49%

Potency, active:
CCCc1cc(=O)n2[nH]c(C)c(-c3ccc(OC)cc3)c2n1 18.4 µM

Potency, inconclusive:
CCOC(=O)C(NC(=O)NCc1ccc(F)cc1)(OCC)C(F)(F)F (centres undefined) 6.51 µM [activator, single point]
c1ccc(Cn2c[n+](Cc3ccccc3)c3ccccc32)cc1 29.1 µM [falling, single point]
Cc1ccc(-c2csc3ncnc(N4CCN(Cc5ccccc5)CC4)c23)cc1 29.1 µM [activator, single point]
Cc1c(C)c2ccc(OCC(=O)Nc3nccs3)cc2oc1=O 0.259 µM [falling, full curve]
CCOC(=O)c1c(CSc2ccccc2)n(C)c2cc(Br)c(OC)c(O)c12 10.3 µM [activator, partial curve, poor fit]
CC(OC(=O)CCN=C1NS(=O)(=O)c2ccccc21)C(=O)Nc1ccc(F)c(F)c1F (centres undefined) 3.26 µM [activator, partial curve]
Cc1ccc(S(=O)(=O)N2CCCCC2)cc1NC(=O)COC(=O)c1ccc(=O)[nH]c1 4.11 µM [activator, partial curve]
Cc1ccc(S(=O)(=O)NCC(=O)OCC(=O)NCc2ccc(F)cc2)cc1 6.51 µM [falling, partial curve, poor fit]
Cc1ccc(C(=O)Nc2nccc(C)n2)cc1 2.91 µM [activator, single point]
CCn1c(=O)cc(SCC(=O)Nc2cccc(SC)c2)c2ccccc21 0.651 µM [rising, partial curve, poor fit]
C=CCn1c(SCC(N)=O)nc(C)cc1=O 0.13 µM [falling, full curve, poor fit]
COc1ccc(/[N+]([O-])=C/c2ccoc2)cc1 16.4 µM [falling, partial curve]
Cc1ccc(C(=O)NCCc2nnc3ccc(SCC(=O)Nc4ccccc4F)nn23)cc1 0.411 µM [activator, partial curve, poor fit]
O=C1C2CC=CCC2C(=O)N1c1ccc(NCCc2ccccc2)c([N+](=O)[O-])c1 (centres undefined) 2.59 µM [activator, full curve, poor fit]
O=c1[nH]c(/C=C/c2ccc(Br)cc2)nc2c1cnn2-c1ccccc1 0.116 µM [falling, full curve]
Cc1ccc(N2C(=O)c3ccc(C(=O)N4CCN(Cc5ccccc5)CC4)cc3C2=O)cc1 1.03 µM [falling, full curve]
Cc1ccc(C(=O)NNC(=O)C2CCN(c3ncccn3)CC2)cc1 29.1 µM [activator, single point]
CC(=O)NCCn1c(SCc2ccccc2F)nc2ccccc2c1=O 9.2 µM [falling, partial curve]
O=C(Nc1cccnc1)OCc1ccccc1 16.4 µM [activator, single point]
COc1cccc(CN(CC2CCCO2)S(=O)(=O)c2ccc(S(=O)(=O)N(C)C)cc2)c1 (centres undefined) 16.4 µM [activator, single point]
CC(/C=N/NC(=O)c1cc(-c2ccccc2)nc2ccccc12)=C\c1ccco1 4.61 µM [activator, single point]

4 records drawn at random from those above, as already listed:
Potency, inconclusive:
CCOC(=O)C(NC(=O)NCc1ccc(F)cc1)(OCC)C(F)(F)F (centres undefined) 6.51 µM [activator, single point]
CCn1c(=O)cc(SCC(=O)Nc2cccc(SC)c2)c2ccccc21 0.651 µM [rising, partial curve, poor fit]
CC(=O)NCCn1c(SCc2ccccc2F)nc2ccccc2c1=O 9.2 µM [falling, partial curve]
Cc1ccc(C(=O)NCCc2nnc3ccc(SCC(=O)Nc4ccccc4F)nn23)cc1 0.411 µM [activator, partial curve, poor fit]
